# Reference: article PMC10442235
# The chains behind the UniProt entries cited, without tags or fusion partners. Where a name states a change or a piece, a line headed by the entry shows the natural chain unless it says otherwise.
# UniProt G0S5S6: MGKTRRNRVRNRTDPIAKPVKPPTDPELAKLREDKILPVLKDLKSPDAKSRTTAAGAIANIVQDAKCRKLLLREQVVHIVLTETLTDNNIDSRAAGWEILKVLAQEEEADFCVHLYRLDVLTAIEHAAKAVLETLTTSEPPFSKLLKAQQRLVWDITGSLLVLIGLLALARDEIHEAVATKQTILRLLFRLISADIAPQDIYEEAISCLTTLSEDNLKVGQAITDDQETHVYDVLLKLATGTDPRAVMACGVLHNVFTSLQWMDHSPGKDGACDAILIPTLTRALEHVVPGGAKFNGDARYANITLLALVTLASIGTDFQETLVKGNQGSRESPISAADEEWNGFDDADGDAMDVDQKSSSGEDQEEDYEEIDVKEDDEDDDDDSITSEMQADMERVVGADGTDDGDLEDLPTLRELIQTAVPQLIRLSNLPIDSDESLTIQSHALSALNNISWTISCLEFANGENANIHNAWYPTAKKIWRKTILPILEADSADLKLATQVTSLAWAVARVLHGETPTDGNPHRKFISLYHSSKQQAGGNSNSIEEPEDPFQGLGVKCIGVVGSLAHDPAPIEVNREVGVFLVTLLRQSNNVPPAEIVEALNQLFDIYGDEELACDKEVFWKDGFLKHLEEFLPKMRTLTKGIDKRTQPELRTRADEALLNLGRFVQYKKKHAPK
# UniProt G0SCH6: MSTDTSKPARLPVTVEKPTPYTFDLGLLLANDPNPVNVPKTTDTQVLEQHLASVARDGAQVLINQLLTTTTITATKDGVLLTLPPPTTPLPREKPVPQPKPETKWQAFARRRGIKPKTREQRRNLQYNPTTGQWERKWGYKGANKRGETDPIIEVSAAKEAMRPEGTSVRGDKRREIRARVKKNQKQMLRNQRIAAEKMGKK
# UniProt G0SF80: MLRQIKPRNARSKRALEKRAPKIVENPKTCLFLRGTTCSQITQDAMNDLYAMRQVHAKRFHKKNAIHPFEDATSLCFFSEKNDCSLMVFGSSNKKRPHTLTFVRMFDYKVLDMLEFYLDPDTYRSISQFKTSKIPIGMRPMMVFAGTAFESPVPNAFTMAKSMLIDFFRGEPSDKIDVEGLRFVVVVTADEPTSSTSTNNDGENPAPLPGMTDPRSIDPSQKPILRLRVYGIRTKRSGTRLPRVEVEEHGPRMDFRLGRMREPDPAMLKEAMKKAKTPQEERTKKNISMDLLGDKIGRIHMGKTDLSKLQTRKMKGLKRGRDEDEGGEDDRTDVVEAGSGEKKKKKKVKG
# UniProt G0S604: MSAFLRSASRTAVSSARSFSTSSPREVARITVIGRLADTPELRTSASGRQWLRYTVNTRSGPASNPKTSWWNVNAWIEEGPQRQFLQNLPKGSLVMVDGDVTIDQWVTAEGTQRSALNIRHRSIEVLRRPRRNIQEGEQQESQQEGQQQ
# UniProt G0SC91: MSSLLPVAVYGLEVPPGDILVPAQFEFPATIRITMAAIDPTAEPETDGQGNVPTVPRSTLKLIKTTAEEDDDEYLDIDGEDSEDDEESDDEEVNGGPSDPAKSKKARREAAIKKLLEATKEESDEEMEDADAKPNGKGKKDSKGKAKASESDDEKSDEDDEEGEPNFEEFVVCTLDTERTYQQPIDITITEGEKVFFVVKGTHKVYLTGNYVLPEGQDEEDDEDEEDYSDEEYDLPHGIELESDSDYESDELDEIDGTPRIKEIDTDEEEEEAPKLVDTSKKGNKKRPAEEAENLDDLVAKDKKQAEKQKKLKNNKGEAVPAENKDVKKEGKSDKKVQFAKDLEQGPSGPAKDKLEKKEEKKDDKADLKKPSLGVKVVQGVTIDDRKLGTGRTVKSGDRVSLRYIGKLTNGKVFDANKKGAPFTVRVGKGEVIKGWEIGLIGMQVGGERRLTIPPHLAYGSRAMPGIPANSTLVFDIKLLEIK
# UniProt G0SF90: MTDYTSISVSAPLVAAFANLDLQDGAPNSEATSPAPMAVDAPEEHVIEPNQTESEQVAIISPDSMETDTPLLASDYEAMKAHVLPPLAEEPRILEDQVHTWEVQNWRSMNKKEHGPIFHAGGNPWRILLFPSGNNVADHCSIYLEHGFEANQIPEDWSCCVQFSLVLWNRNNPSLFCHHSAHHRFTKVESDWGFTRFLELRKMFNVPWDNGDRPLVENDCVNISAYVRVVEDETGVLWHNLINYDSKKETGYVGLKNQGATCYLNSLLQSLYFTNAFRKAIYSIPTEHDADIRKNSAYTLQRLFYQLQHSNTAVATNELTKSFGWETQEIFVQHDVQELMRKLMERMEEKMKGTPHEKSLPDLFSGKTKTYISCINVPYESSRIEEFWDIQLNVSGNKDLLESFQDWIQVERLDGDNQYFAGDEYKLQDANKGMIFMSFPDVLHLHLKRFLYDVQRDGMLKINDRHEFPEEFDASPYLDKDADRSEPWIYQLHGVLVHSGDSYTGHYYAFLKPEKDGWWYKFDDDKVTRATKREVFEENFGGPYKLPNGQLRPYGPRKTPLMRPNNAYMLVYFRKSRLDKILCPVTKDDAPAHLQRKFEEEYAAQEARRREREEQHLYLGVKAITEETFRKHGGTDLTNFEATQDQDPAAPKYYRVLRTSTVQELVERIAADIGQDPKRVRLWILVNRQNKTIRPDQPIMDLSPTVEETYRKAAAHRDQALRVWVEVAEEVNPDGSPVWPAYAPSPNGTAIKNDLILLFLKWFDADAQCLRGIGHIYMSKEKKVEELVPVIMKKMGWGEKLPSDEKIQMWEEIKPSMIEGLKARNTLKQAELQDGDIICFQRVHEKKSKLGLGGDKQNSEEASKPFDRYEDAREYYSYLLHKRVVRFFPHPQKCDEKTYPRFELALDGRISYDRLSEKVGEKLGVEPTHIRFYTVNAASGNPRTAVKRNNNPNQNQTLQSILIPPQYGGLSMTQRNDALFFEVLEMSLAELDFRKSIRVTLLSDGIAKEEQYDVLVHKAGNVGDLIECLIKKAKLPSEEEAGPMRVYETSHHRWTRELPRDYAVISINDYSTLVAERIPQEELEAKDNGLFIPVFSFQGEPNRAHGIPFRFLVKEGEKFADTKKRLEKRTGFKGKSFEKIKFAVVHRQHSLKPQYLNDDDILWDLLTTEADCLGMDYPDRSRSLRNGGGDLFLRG
# UniProt Q06205: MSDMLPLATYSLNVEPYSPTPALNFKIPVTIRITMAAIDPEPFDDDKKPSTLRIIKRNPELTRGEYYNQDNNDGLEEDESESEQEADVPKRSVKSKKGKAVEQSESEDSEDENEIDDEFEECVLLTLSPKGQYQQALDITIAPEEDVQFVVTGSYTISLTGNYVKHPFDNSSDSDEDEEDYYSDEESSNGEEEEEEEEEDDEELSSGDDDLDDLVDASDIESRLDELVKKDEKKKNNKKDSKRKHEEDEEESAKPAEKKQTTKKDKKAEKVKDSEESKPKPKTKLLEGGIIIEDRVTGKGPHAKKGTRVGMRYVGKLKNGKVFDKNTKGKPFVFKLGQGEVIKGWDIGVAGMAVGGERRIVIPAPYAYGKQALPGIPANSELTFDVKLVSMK
# UniProt G0SHQ2: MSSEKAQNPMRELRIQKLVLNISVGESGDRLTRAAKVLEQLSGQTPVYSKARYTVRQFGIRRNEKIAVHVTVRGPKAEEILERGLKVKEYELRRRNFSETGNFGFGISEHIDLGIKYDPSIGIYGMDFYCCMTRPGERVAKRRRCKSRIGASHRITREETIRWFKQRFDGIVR
# UniProt G0SEG2: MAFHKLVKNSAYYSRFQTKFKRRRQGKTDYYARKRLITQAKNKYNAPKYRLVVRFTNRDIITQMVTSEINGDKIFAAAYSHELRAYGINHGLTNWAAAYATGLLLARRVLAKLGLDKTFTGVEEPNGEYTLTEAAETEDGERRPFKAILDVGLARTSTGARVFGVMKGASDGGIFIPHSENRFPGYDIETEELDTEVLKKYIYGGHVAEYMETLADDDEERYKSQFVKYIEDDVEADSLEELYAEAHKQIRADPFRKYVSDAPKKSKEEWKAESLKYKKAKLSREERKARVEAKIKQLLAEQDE
# These are yes or no findings as the source states them, for the method shown. In cells and extracts the contact can be indirect. Here binding means that the protein was enriched with, or labelled near, the bait; the list need not be complete. For some of these results: Tags and fused reporters may be left off the sequences shown.
# T1: ProtA-TEV-tagged scSyo1 (S. cerevisiae) (UniProt Q07395)
# T1 sequence: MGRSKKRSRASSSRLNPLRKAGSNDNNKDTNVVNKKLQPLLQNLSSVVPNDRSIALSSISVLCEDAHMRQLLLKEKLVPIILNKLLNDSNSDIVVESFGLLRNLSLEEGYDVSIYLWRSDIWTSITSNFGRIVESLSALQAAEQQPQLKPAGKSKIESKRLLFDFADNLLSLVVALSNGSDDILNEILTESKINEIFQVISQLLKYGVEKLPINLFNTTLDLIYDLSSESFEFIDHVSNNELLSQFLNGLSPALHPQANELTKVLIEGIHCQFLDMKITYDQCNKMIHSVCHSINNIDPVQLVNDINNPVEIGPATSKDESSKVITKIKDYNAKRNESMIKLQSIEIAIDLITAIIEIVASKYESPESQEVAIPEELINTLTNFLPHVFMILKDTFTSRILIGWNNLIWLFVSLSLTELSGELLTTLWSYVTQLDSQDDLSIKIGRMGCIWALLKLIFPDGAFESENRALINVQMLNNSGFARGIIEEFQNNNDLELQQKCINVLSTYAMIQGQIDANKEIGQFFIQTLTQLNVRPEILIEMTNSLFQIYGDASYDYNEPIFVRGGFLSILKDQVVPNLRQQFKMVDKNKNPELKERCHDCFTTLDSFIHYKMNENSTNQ
# T2: Rpf2-FtpA (yeast) (S. cerevisiae) (UniProt P36160)
# T2 sequence: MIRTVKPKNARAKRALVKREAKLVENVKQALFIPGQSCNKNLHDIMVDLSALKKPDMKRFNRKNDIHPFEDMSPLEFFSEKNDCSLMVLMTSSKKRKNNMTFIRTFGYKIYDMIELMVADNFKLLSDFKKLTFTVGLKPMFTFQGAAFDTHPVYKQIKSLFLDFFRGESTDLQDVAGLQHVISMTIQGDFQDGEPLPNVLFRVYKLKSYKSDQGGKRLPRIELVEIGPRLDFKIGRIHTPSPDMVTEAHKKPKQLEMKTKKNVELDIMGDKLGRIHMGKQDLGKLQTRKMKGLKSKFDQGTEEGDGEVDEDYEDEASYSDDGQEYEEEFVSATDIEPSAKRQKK
# T3: FLAG-scRrs1 (S. cerevisiae) (UniProt Q08746)
# T3 sequence: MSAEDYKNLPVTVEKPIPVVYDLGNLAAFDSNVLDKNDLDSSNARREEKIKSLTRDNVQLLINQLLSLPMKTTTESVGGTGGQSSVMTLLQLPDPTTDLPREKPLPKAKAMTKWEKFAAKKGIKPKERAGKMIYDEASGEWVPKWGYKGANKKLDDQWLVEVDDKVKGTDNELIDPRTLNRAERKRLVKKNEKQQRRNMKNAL
# T4: hsRpf2 (second bait) (human) (UniProt Q9H7B2)
# T4 sequence: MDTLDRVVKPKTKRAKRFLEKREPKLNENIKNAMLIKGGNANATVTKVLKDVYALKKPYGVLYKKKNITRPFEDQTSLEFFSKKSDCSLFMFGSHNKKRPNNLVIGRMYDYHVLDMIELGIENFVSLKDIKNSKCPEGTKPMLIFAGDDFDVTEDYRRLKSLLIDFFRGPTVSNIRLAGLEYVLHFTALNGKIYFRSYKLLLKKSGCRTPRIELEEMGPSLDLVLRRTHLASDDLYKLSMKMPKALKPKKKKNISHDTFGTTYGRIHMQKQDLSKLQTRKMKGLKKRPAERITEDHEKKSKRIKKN
# B1: scRpf2 (protein, UniProt P36160 1-344)
# chain: T2 sequence
# B2: scuL18 (protein, UniProt P26321 1-297)
# chain: MAFQKDAKSSAYSSRFQTPFRRRREGKTDYYQRKRLVTQHKAKYNTPKYRLVVRFTNKDIICQIISSTITGDVVLAAAYSHELPRYGITHGLTNWAAAYATGLLIARRTLQKLGLDETYKGVEEVEGEYELTEAVEDGPRPFKVFLDIGLQRTTTGARVFGALKGASDGGLYVPHSENRFPGWDFETEEIDPELLRSYIFGGHVSQYMEELADDDEERFSELFKGYLADDIDADSLEDIYTSAHEAIRADPAFKPTEKKFTKEQYAAESKKYRQTKLSKEERAARVAAKIAALAGQQ
# B3: endogenous yeast uL18 (protein, UniProt P26321 1-297)
# chain: B2 chain
# B4: hsSyo1 (HEATR3) (protein, UniProt Q7Z4Q2 1-680)
# chain: MGKSRTKRFKRPQFSPTGDCQAEAAAAANGTGGEEDDGPAAELLEKLQHPSAEVRECACAGLARLVQQRPALPGLARRDAVRRLGPLLLDPSLAVRETAAGALRNLSACGGFEVCDDMVTKDIMTPLVALLKECSAGLDSNEMSLQEKKDQNRNSIENIANETVNVLWNICECSSRAVSIFNKEGCLEIVLKYLSRFPTNVDLAISVAYCLQTVTEDNPELLKSFSATALNMLESALLSPVSSMESLLLKTLVAGTIWNLKDIIPCKSQAEIINALLKILSEVLGMDAGEMVIQMKEAETQRLKTAAEAEEILENTNGDDLIEDDEMEGISHKRRVRRKTFVSDLLPPTDKELRETIALLTAQQTALEIIVNMCCNEDPSDDEWEELSSSDESDAFMENSFSECGGQLFSPLCLSHEVHTALTNYLIPKKIFEKTAFPNSIAVDLCSRNPTWKPLIRKMNTIQCRALFCLQSLVSLLDVEHLGGAAALQTLAQHLSQLLFSQPDFAKHVDFLEAISSALRALLQTMASKNISQCMTPDQLMTLCKAGIHSSNVGVRVNVVSILGITGSVLAKEDGTLETLKNIGCFLLEVTTKDPSLVVAGEALDALFDVFADGKEAERASIQIKLLSALKEFQPVFKMKIRKEGRGNYSTDQLCVLDNVKMNLRRFIAYQETVEKRLTS
# B5: Fpr3 (protein, UniProt P38911 1-411)
# chain: MSDLLPLATYSLNVEPYTPVPAIDVTMPITVRITMAALNPEAIDEENKPSTLRIIKRNPDFEDDDFLGGDFDEDEIDEESSEEEEEEKTQKKKKSKGKKAESESEDDEEDDDEDDEFQESVLLTLSPEAQYQQSLDLTITPEEEVQFIVTGSYAISLSGNYVKHPFDTPMGVEGEDEDEDADIYDSEDYDLTPDEDEIIGDDMDDLDDEEEEEVRIEEVQEEDEEDNDGEEEQEEEEEEEQKEEVKPEPKKSKKEKKRKHEEKEEEKKAKKVKKVEFKKDLEEGPTKPKSKKEQDKHKPKSKVLEGGIVIEDRTIGDGPQAKRGARVGMRYIGKLKNGKVFDKNTSGKPFAFKLGRGEVIKGWDIGVAGMSVGGERRIIIPAPYAYGKQALPGIPANSELTFDVKLVSMKN
# Key:
# [1] = molecular target: ctSyo1-FLAG-TEV-ProtA (Chaetomium thermophilum) (UniProt G0S5S6); assay: affinity purification with mass spectrometry; FLAG-TEV-ProtA (FtpA)-tagged bait from C. thermophilum mycelium lysate; IgG Sepharose, TEV elution, anti-FLAG gel, FLAG peptide elution; NB-HEPES buffer (20 mM HEPES pH 7.5, 150 mM NaCl, 50 mM K(OAc), 2 mM Mg(OAc)2, 1 mM DTT, 5% glycerol, 0.1% IGEPAL CA-630); FLAG eluate on a 5–30% sucrose gradient, SDS-PAGE, bands identified by mass spectrometry; the complex contains 5S rRNA
# [2] = molecular target: T1, ProtA-TEV-tagged scSyo1 (S. cerevisiae); assay: affinity purification with mass spectrometry; split-tag tandem affinity purification (ProtA bait on IgG Sepharose, TEV elution, FLAG bait on anti-FLAG gel, FLAG peptide elution) from lysate of S. cerevisiae expressing the factors; NB-HEPES buffer; SDS-PAGE, Coomassie, bands identified by mass spectrometry; the complexes contain yeast 5S rRNA
# [3] = molecular target: ProtA-TEV-ctSyo1 (Chaetomium thermophilum) (UniProt G0S5S6); assay: as above
# [4] = molecular target: T2, Rpf2-FtpA (yeast) (S. cerevisiae); assay: affinity purification with mass spectrometry; tandem affinity purification via FtpA-tagged Rpf2 (wild type or ΔC) from yeast after 6 h repression of GAL::HA-RPF2 and GAL::HA-RRS1 in glucose; eluate on a 5–30% sucrose gradient, SDS-PAGE, Coomassie, bands identified by mass spectrometry
# [5] = molecular target: ctRrs1-FLAG-TEV-ProtA (Chaetomium thermophilum) (UniProt G0SCH6); assay: affinity purification with mass spectrometry; FLAG-TEV-ProtA (FtpA)-tagged bait from C. thermophilum mycelium lysate; IgG Sepharose, TEV elution, anti-FLAG gel, FLAG peptide elution; NB-HEPES buffer (20 mM HEPES pH 7.5, 150 mM NaCl, 50 mM K(OAc), 2 mM Mg(OAc)2, 1 mM DTT, 5% glycerol, 0.1% IGEPAL CA-630); FLAG eluate on a 5–30% sucrose gradient, SDS-PAGE, bands identified by mass spectrometry; the complex contains 5S rRNA
# [6] = molecular target: ctRpf2-FLAG-TEV-ProtA (Chaetomium thermophilum) (UniProt G0SF80); assay: as above
# [7] = molecular target: T3, FLAG-scRrs1 (S. cerevisiae); assay: affinity purification with mass spectrometry; split-tag tandem affinity purification (ProtA bait on IgG Sepharose, TEV elution, FLAG bait on anti-FLAG gel, FLAG peptide elution) from lysate of S. cerevisiae expressing the factors; NB-HEPES buffer; SDS-PAGE, Coomassie, bands identified by mass spectrometry; the complexes contain yeast 5S rRNA
# [8] = molecular target: FLAG-ctRrs1 (Chaetomium thermophilum) (UniProt G0SCH6); assay: as above
# [9] = molecular target: T4, hsRpf2 (second bait) (human); assay: as above
molecule,measurement,setting,value
CTHT_0025560 (from UniProt G0S604),binding,[1],binds
CTHT_0056370 (Fpr4 homologue) (from UniProt G0SC91),binding,[1],binds
CTHT_0061210 (from UniProt G0SF90),binding,[1],binds
FLAG-Rpf2ΔC (S. cerevisiae) (domain or fragment),binding,[2],binds
FLAG-ctRrs1 (from UniProt G0SCH6),binding,[3],binds
Fpr4 (from UniProt Q06205 1-392),binding,[4],binds
Rrs1ΔC (S. cerevisiae) (domain or fragment),binding,[2],binds
ctRrs1 (from UniProt G0SCH6),binding,[1],binds
ctSyo1 (from UniProt G0S5S6),binding,[5],binds
same,binding,[6],binds
ctuL5 (from UniProt G0SHQ2),binding,[5],binds
same,binding,[6],binds
same,binding,[1],binds
ctuL18 (from UniProt G0SEG2),binding,[5],binds
same,binding,[6],binds
same,binding,[1],binds
scuL5 (S. cerevisiae),binding,[7],binds
same,binding,[2],binds
B1,binding,[2],binds
B2,binding,[7],binds
same,binding,[2],binds
B3,binding,[8],binds
same,binding,[3],binds
B4,binding,[9],binds
B5,binding,[4],binds
